{
  "sequences": {"note": "The chains behind the UniProt entries cited, without tags or fusion partners. Where a name states a change or a piece, a line headed by the entry shows the natural chain unless it says otherwise.", "UniProt A2RRD8": "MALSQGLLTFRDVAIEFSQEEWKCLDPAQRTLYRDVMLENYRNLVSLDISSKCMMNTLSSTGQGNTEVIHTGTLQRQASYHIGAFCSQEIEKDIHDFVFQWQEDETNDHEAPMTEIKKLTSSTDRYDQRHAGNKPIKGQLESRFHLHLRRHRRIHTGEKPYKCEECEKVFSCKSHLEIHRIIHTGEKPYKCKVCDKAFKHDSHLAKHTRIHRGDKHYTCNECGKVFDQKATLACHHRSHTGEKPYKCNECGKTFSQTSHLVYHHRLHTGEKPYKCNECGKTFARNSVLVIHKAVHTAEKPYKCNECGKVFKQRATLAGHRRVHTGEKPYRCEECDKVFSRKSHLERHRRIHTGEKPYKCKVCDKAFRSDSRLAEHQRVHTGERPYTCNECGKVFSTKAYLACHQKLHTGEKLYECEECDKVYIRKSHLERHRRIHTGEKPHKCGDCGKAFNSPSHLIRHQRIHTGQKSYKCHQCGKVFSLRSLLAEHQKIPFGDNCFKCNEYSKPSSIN", "UniProt A1X283": "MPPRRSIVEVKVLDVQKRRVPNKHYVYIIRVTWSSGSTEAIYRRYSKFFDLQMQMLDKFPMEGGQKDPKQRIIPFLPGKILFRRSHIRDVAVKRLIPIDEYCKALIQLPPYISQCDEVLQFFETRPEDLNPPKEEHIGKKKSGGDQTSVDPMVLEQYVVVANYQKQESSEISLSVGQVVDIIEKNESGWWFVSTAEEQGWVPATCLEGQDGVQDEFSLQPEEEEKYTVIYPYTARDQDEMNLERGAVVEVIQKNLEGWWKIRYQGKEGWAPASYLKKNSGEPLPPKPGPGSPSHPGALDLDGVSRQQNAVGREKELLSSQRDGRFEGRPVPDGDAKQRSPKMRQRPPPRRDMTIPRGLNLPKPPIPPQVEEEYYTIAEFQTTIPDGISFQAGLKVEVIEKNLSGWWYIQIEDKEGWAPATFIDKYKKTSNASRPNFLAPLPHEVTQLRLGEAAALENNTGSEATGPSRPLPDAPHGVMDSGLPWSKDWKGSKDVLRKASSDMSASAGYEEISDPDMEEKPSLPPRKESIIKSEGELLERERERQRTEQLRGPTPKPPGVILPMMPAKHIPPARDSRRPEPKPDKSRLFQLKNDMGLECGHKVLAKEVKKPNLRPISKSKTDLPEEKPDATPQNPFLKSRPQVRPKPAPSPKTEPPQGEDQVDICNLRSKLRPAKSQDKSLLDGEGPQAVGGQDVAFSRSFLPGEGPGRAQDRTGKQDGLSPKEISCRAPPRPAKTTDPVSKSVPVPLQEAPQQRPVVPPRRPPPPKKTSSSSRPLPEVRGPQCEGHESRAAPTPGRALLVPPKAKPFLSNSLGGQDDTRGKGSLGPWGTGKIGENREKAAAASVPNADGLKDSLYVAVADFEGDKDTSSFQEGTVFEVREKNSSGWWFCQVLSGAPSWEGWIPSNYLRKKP", "UniProt A1L429": "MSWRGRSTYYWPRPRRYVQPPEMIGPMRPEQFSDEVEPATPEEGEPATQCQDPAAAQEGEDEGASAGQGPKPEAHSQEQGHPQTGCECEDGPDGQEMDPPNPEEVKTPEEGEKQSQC", "UniProt A4D126": "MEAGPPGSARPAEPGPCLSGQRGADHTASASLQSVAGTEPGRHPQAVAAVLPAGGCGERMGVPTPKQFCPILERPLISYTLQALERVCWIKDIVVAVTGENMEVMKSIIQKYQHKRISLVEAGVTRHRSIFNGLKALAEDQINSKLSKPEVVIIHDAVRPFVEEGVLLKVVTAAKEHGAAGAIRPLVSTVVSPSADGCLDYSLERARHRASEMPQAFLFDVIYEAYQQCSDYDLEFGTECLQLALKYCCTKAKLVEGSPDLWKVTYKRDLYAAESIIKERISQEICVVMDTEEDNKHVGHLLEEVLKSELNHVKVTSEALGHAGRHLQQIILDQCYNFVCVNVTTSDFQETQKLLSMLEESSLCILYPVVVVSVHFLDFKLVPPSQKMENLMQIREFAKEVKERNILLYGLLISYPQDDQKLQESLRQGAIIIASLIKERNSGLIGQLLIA", "UniProt A6NDG6": "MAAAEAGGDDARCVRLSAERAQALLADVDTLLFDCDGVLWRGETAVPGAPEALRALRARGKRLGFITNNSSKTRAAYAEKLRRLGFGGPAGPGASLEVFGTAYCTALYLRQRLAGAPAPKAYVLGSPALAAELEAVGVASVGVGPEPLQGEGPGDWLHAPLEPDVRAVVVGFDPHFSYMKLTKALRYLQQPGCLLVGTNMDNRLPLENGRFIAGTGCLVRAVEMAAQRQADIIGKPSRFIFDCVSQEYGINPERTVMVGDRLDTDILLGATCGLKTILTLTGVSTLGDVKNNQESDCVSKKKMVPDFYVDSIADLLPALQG", "UniProt A4D1E1": "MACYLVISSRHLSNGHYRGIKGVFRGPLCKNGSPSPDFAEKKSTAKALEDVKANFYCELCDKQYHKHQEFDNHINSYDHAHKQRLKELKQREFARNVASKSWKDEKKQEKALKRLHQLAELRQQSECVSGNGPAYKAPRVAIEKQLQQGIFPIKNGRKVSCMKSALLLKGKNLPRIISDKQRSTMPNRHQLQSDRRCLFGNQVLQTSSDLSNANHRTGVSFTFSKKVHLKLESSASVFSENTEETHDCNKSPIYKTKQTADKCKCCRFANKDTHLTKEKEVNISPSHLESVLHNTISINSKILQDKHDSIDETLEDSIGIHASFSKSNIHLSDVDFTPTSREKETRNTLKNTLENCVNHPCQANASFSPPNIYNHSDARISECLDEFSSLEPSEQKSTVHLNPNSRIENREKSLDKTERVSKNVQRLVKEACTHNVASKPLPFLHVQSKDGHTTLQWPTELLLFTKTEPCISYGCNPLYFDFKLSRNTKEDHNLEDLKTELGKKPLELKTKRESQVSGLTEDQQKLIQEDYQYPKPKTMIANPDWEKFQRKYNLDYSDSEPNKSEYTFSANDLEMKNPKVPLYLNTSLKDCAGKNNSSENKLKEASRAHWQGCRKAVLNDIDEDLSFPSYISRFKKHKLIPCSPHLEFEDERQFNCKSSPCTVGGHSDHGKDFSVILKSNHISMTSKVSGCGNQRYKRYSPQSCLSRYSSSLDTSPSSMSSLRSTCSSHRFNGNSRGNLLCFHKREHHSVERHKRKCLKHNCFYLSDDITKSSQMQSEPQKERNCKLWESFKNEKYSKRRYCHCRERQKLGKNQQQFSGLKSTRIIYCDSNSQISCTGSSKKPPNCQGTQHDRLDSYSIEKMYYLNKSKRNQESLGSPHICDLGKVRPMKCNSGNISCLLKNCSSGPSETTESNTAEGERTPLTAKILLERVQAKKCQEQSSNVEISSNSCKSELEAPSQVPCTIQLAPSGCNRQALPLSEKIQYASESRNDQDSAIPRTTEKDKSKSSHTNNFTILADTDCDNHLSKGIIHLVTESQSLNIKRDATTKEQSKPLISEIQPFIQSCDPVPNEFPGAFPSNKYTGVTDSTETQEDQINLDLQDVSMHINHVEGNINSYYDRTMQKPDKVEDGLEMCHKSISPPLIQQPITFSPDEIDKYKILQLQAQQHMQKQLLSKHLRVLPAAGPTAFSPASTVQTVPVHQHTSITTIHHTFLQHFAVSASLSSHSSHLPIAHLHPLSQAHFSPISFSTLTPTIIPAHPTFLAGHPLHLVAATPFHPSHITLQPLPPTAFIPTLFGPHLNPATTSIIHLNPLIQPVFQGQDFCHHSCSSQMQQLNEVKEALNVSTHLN", "UniProt A2RTX5": "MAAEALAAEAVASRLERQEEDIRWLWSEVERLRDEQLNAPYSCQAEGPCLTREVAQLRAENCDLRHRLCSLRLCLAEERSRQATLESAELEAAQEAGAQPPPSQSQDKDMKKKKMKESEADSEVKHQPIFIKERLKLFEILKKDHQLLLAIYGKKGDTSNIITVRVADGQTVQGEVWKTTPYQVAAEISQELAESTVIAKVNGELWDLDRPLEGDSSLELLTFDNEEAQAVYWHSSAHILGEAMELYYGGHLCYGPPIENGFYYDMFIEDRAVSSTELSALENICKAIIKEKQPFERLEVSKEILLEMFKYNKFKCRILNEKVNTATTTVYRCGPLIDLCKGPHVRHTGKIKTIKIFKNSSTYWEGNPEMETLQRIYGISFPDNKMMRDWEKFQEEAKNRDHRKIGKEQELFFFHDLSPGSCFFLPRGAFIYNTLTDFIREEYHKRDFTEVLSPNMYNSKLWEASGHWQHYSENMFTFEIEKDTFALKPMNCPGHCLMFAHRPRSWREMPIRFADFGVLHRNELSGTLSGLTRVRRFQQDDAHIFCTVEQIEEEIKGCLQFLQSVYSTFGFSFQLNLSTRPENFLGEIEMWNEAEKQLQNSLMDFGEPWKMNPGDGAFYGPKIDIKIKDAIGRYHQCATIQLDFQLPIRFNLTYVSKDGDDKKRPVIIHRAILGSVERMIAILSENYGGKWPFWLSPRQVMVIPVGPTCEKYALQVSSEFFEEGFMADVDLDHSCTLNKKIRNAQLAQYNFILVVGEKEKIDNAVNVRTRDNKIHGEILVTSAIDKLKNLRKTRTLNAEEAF", "UniProt A1L020": "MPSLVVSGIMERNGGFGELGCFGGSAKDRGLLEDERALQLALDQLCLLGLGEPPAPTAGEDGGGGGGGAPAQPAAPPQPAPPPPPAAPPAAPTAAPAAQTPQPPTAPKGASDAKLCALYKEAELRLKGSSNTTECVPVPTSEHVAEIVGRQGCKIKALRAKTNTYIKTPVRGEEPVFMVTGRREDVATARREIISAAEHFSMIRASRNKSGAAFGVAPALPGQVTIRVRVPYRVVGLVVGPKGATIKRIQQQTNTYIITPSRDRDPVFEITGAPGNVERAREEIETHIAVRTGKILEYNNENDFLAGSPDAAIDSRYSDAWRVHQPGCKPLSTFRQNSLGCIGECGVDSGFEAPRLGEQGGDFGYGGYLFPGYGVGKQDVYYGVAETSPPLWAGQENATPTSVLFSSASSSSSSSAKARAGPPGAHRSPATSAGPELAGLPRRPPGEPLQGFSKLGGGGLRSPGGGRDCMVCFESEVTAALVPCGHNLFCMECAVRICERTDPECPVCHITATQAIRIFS", "UniProt A6NER0": "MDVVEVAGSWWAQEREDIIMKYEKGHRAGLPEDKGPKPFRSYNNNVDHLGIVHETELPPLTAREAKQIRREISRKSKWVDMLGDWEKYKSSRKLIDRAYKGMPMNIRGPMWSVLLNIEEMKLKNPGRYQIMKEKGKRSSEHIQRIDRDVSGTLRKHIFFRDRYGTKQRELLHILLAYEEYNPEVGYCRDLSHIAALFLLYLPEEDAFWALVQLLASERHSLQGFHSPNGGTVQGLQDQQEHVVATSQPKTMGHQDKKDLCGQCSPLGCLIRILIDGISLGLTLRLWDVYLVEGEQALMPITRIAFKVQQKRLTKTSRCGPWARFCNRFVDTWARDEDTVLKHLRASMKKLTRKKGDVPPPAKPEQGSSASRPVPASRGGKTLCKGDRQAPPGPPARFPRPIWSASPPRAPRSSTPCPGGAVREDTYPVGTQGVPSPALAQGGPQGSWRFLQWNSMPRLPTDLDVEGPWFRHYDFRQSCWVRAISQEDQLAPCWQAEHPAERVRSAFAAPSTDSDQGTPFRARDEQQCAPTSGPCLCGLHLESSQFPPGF", "UniProt A6NCL7": "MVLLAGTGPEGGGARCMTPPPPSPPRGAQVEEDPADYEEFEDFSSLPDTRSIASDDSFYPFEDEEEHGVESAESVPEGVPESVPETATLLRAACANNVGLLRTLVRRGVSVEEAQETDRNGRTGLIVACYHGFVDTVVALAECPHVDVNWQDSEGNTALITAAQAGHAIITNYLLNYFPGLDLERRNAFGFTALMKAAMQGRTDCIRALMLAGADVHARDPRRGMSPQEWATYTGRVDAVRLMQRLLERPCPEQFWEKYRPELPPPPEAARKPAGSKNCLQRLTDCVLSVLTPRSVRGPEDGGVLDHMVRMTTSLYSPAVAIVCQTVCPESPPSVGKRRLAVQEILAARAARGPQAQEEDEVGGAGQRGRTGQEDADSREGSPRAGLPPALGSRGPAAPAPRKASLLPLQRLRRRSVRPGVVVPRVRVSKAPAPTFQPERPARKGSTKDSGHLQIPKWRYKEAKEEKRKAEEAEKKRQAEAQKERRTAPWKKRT", "UniProt A4D2B8": "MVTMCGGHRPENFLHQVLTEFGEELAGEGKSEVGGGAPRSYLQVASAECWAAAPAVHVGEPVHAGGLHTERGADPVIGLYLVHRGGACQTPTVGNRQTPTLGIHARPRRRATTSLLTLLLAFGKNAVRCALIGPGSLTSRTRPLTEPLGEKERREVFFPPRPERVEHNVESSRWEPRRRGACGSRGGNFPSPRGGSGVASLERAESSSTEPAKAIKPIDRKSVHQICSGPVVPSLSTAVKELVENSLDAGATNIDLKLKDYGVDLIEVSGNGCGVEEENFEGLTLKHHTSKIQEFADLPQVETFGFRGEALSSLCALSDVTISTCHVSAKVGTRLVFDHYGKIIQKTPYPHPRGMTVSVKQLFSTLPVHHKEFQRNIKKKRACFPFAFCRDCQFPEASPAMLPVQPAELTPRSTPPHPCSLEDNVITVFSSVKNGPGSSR"},
  "source": "the supplement of paper PMC12819154",
  "about": "“High-throughput peptide-centric local stability assay extends protein–ligand identification to membrane proteins, tissues and bacteria” (Nature Structural & Molecular Biology, 2025)",
  "note": "This is one part of the list. Most entries show no effect beyond the scatter of the controls.",
  "data": [
    {"compound": "CN[C@@H]1C[C@H]2O[C@@](C)([C@@H]1OC)n1c3ccccc3c3c4c(c5c6ccccc6n2c5c31)C(=O)NC4 [staurosporine]", "test": "log2 fold change of tryptic peptide abundance, ligand vs vehicle (limited proteolysis) (log2 ratio); higher = more trypsin-susceptible (destabilized)", "settings": "ligand concentration: 20 uM; sample: K562 cleared lysate; digestion: 4 min, 22 C (HT-PELSA RT4min, Orbitrap Astral)", "values": [
      {"target": "UniProt A2RRD8 (peptide sequence: NLVSLDISSK, peptide start residue: 43)", "log2 fold change": 0.164},
      {"target": "SH3PXD2B (peptide sequence: SFLPGEGPGR, peptide start residue: 699) (UniProt A1X283)", "log2 fold change": -0.179},
      {"target": "A0A8I5KQE6 (peptide sequence: SDGIYIINLK, peptide start residue: 43), A0A8I5KQE6", "log2 fold change": 0.117},
      {"target": "A0AUZ9 (peptide sequence: EILTPSWR, peptide start residue: 884)", "log2 fold change": -0.291},
      {"target": "UniProt A1L429 (peptide sequence: STYYWPR, peptide start residue: 7)", "log2 fold change": -0.0478},
      {"target": "A0A0B4J2A2 (peptide sequence: IIPGFMCQGGDFTR, peptide start residue: 56), A0A0B4J2A2", "log2 fold change": 0.101},
      {"target": "CRPPA (peptide sequence: ALAEDQINSK, peptide start residue: 136) (UniProt A4D126)", "log2 fold change": 0.218},
      {"target": "A0A3B3IS91 (peptide sequence: AAAAQPIGHPDALER, peptide start residue: 86), A0A3B3IS91", "log2 fold change": -0.112},
      {"target": "A0A096LP55 (peptide sequence: EQCEQLEK, peptide start residue: 35), A0A096LP55", "log2 fold change": -0.133},
      {"target": "PGP (peptide sequence: GETAVPGAPEALR, peptide start residue: 42) (UniProt A6NDG6)", "log2 fold change": -0.0926},
      {"target": "UniProt A4D1E1 (peptide sequence: HQEFDNHINSYDHAHK, peptide start residue: 148)", "log2 fold change": -0.507},
      {"target": "TARSL2 (peptide sequence: EILLEMFK, peptide start residue: 303) (UniProt A2RTX5)", "log2 fold change": 0.312},
      {"target": "A0A494C030 (peptide sequence: RPADTGPVWVPR, peptide start residue: 165)", "log2 fold change": -0.115},
      {"target": "A0A6I8PU40 (peptide sequence: AAAYAFAIR, peptide start residue: 65), A0A6I8PU40", "log2 fold change": -0.129},
      {"target": "UniProt A2RRP1 (peptide sequence: RGQVLILLVEQALR, peptide start residue: 1280)", "log2 fold change": 0.379},
      {"target": "MEX3A (peptide sequence: DRDPVFEITGAPGNVER, peptide start residue: 263) (UniProt A1L020)", "log2 fold change": -0.322},
      {"target": "UniProt A6NE01 (peptide sequence: VKRESPFDK, peptide start residue: 550)", "log2 fold change": 0.151},
      {"target": "FAM83G (peptide sequence: LAQNARPMTDGR, peptide start residue: 763) (UniProt A6ND36)", "log2 fold change": 0.624},
      {"target": "UniProt A3KMH1 (peptide sequence: LDAGHTVYQVSQAEKDAVPEEVKR, peptide start residue: 1590)", "log2 fold change": -0.589},
      {"target": "RCCD1 (peptide sequence: LELSGSASGAAGR, peptide start residue: 60) (UniProt A6NED2)", "log2 fold change": -0.308},
      {"target": "CCDC144A (peptide sequence: FKNEVNTLEEEFLALKK, peptide start residue: 502) (UniProt A2RUR9)", "log2 fold change": -0.153},
      {"target": "BDP1 (peptide sequence: QQVEAAFQSR, peptide start residue: 2438) (UniProt A6H8Y1)", "log2 fold change": -0.499},
      {"target": "UniProt A6NER0 (peptide sequence: KKGDVPPPAK, peptide start residue: 353)", "log2 fold change": -0.15},
      {"target": "UniProt A4FU28 (peptide sequence: ISHATEELETYR, peptide start residue: 1029)", "log2 fold change": 0.168},
      {"target": "UniProt A4QPH2 (peptide sequence: SGTPMQSAAK, peptide start residue: 1791)", "log2 fold change": -0.286},
      {"target": "UniProt A6NCL7 (peptide sequence: EAKEEKR, peptide start residue: 462)", "log2 fold change": -0.108},
      {"target": "A0AVT1 (peptide sequence: NAIFQLEK, peptide start residue: 823)", "log2 fold change": 0.214},
      {"target": "A0A0U1RRE5 (peptide sequence: STLPPGNAR, peptide start residue: 11), A0A0U1RRE5", "log2 fold change": -0.179},
      {"target": "UniProt A4D2B8 (peptide sequence: AESSSTEPAK, peptide start residue: 4)", "log2 fold change": -0.15},
      {"target": "A0AVK6 (peptide sequence: KLEVSTEDVH, peptide start residue: 858)", "log2 fold change": 0.691}
    ]}
  ]
}
